Measured values from PubChem BioAssay AID1487 (National Center for Advancing Translational Sciences (NCATS), 2009).
The list shows a part of the results. Further columns of the screen follow, without active or inactive calls. Compounds called inactive in the main read-out are mostly missing here. The note in brackets gives the kind of curve behind each potency; many fits are weak.

Experiment: qHTS Assay for Modulators of Lamin A Splicing
Conditions: HeLa LMNA splicing GFP/RFP minigene ratio, 48 h
Method in brief: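 S3 HeLa cells stably expressing lamin A-EGFP splicing minigene plus DsRed2, 600 cells/well, 48 h compound exposure at 37C. Laser-scanning cytometry; analysed as GFP (500-530 nm)/RFP (575-640 nm) total intensity ratio; 0.5% DMSO vehicle.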

[1] = measured here: GFP splicing reporter channel
[2] = measured here: RFP viability control channel

SMILES | AC50 [1] | AC50 [2]
CC(Nc1oc(-c2ccc(COc3ccccc3)o2)nc1C#N)c1ccccc1 (configuration not stated) | 35.5 µM [falling, single point] | 28.2 µM [falling, single point]
S=C(NCc1cccs1)Nc1ccc(Cl)cc1 | 17.8 µM [rising, partial curve, poor fit] | 15.8 µM [rising, partial curve]
COc1ccccc1-c1cc(C(=O)Nc2cccnc2)no1 | 11.2 µM [rising, partial curve, poor fit] | 2.24 µM [rising, full curve]
Cc1ccnc(Sc2ccc([N+](=O)[O-])cc2[N+](=O)[O-])n1 | 15.8 µM [falling, single point] | 
CC1=C(C(=O)O)N2C(=O)[C@@H](NC(=O)[C@@H](N)c3ccc(O)cc3)[C@@H]2SC1 | 0.0112 µM [falling, full curve] | 0.0126 µM [falling, full curve]
Cc1ccc2nc(SCC(=O)c3c(C)[nH]c4ccccc34)[nH]c2c1 |  | 14.1 µM [rising, single point]
O=C(CN1C(=O)c2cccc3cccc(c23)C1=O)N1CCCCC1 |  | 0.0224 µM [rising, full curve, poor fit]
Cc1cc(C)cc(NC(=O)c2oc3ccccc3c2COc2ccccc2)c1 | 20 µM [rising, single point] | 25.1 µM [rising, single point]
CCOc1ccc2[nH]c(=O)c(CN(CCO)C(=O)c3ccccc3F)cc2c1 |  | 15.8 µM [rising, single point]
N=c1ccn(Cc2cccc(Cl)c2)cc1 | 12.6 µM [rising, partial curve, poor fit] | 15.8 µM [rising, single point]
Cc1ccc(NN2C(=O)C=C(c3ccc(Cl)cc3)C2=O)cc1 | 35.5 µM [falling, single point] | 25.1 µM [falling, single point]
NCCCC[C@@H]1NC(=O)c2cc([N+](=O)[O-])cc(I)c2SC[C@@H](C(=O)NCC(N)=O)NC(=O)CNC1=O | 0.282 µM [falling, partial curve, poor fit] | 
O=S1(=O)OC(c2ccc(O)cc2)(c2ccc(O)cc2)c2ccccc21 | 0.126 µM [rising, full curve, poor fit] | 35.5 µM [rising, single point]
O=C(CSc1ccc(-c2ccccc2)nn1)Nc1ccc2c(c1)OCCO2 |  | 22.4 µM [rising, single point]
Cc1nn(Cc2ccc(Cl)cc2)c(C)c1NC(=O)Cn1nc([N+](=O)[O-])c(Cl)c1C |  | 20 µM [falling, partial curve]
CC[n+]1ccc(/C=C2\Sc3ccccc3N2CCCS(=O)(=O)[O-])c2ccccc21 |  | 0.0224 µM [falling, full curve, poor fit]
COc1cccc(C(=O)Nn2cnnc2)c1 |  | 28.2 µM [falling, partial curve, poor fit]
CCN(CC)S(=O)(=O)c1ccc(/C=C/C(=O)Nc2ccc(F)c(F)c2F)cc1 | 3.98 µM [rising, single point] | 2.82 µM [rising, full curve]
c1ccc2c(Cn3nnc4ccccc43)cccc2c1 |  | 25.1 µM [rising, single point]
Cc1ccc(C(=O)NCCc2csc(-c3cccc(F)c3)n2)cc1C | 11.2 µM [falling, partial curve, poor fit] | 
COc1ccc(NC(=S)Nc2ccc(OCc3ccccc3)cc2)cc1OC | 12.6 µM [rising, single point] | 25.1 µM [rising, single point]
COc1cc2c(cc1OC)C(COc1cc(C)cc(C)c1)N(C(=O)C(C)(C)C)CC2 (configuration not stated) |  | 20 µM [rising, single point]
Cc1ccc(C(c2sc3nc(-c4ccco4)nn3c2O)N2CCN(c3ccc(F)cc3)CC2)cc1 (configuration not stated) | 35.5 µM [falling, single point] | 
CCCCCCOC(=O)C(C#N)c1nc2ccccc2nc1N1CCN(CC)CC1 (configuration not stated) | 35.5 µM [falling, single point] | 28.2 µM [falling, partial curve]
Cc1oc(-c2cccc(Cl)c2)nc1Cn1c(SCc2ccc(F)cc2)nc2cccnc21 |  | 35.5 µM [rising, single point]
O=S(=O)(Cc1cc(NCc2ccccc2)nc(-c2ccccn2)n1)c1ccccc1 | 11.2 µM [falling, partial curve] | 
CC1CCCN(c2nc3c(c(=O)[nH]c(=O)n3C)n2CCSc2nc3ccccc3o2)C1 (configuration not stated) |  | 0.501 µM [falling, full curve, poor fit]
Cc1ccc(C2CC(=O)Nc3c2c(C)nn3-c2nc(C)cc(C)n2)c(C)c1 (configuration not stated) | 5.01 µM [falling, full curve] | 5.62 µM [falling, full curve]

Reformatted as tab-separated lines: entries from further up.
SMILES	AC50 [1]	AC50 [2]
Cc1ccc(NN2C(=O)C=C(c3ccc(Cl)cc3)C2=O)cc1	35.5 µM [falling, single point]	25.1 µM [falling, single point]
NCCCC[C@@H]1NC(=O)c2cc([N+](=O)[O-])cc(I)c2SC[C@@H](C(=O)NCC(N)=O)NC(=O)CNC1=O	0.282 µM [falling, partial curve, poor fit]	
O=S1(=O)OC(c2ccc(O)cc2)(c2ccc(O)cc2)c2ccccc21	0.126 µM [rising, full curve, poor fit]	35.5 µM [rising, single point]

Next structures:

SMILES | AC50 [1] | AC50 [2]
O=C1N=C(N2CCN(c3ccccc3)CC2)SC1Cc1ccccc1 (configuration not stated) |  | 35.5 µM [rising, single point]
COC(=O)c1ccc(C2N=C(c3cccs3)CC(c3ccccc3O)N2)cc1 (configuration not stated) | 12.6 µM [falling, partial curve] | 14.1 µM [falling, single point]
Cc1cc2n(n1)CCCN2C(=O)Nc1ccccc1C(F)(F)F |  | 11.2 µM [rising, partial curve, poor fit]
COc1ccc(-c2c(N)nnc3c2[nH]c2ccccc23)cc1OC | 6.31 µM [falling, single point] | 2.24 µM [falling, partial curve, poor fit]
CC(C)Cc1ccc(S(=O)(=O)N2CCN(C(=O)c3ccco3)CC2)cc1 | 11.2 µM [rising, partial curve, poor fit] | 15.8 µM [rising, partial curve]
CCCCCCOC(=O)CCn1[nH]c(=O)c2ccccc2c1=O |  | 14.1 µM [rising, single point]
O=C(CN1CCN(C(=S)NC2CCCC2)CC1)Nc1ccc(Oc2ccccc2)cc1 |  | 35.5 µM [rising, single point]
COc1ccc(N/N=C(/N=Nc2nc(C)cc(=O)[nH]2)c2ccccc2)cc1 |  | 22.4 µM [rising, single point]
Cc1cc2nc(C)c(Cl)c(=O)n2[nH]1 |  | 0.00316 µM [falling, full curve, poor fit]
CCn1c(=O)c([N+](=O)[O-])c(Cl)c2ccccc21 | 6.31 µM [falling, partial curve] | 14.1 µM [falling, partial curve]
CC12CCC(O)CC1=CCC1C2CCC2(C)C1CCC21CCC(=O)O1 (configuration not stated) | 11.2 µM [rising, partial curve] | 
Cc1nn(C(=O)c2cccs2)c(N)c1-c1ccccc1 |  | 35.5 µM [rising, single point]
COc1cc2c(C(=O)N3CCN(c4ccccc4C)CC3)c(C)oc2cc1Br | 7.94 µM [rising, partial curve] | 14.1 µM [rising, partial curve]
Nc1c(S(=O)(=O)c2cccc(Cl)c2)c2nc3ccccc3nc2n1/N=C/c1ccc(O)c(O)c1 | 35.5 µM [falling, single point] | 
CC(=O)c1ccc(NC(=O)N2CCN(c3ccc(C)cc3)C(C)C2)cc1 (configuration not stated) | 0.891 µM [falling, full curve] | 1.26 µM [falling, full curve, poor fit]
Clc1cccc(Nc2ncnc3c2nc2n3CCCCC2)c1 | 10 µM [falling, partial curve] | 
Cc1c(S(=O)(=O)N2CCc3ccccc3C2)c(=O)n(C)c(=O)n1C |  | 7.08 µM [rising, partial curve]
Cc1ccc(NC(=O)N2CC=C(c3c[nH]c4ccccc34)CC2)cc1Cl | 17.8 µM [rising, single point] | 14.1 µM [rising, single point]
CCOCCn1ccc2c(OCC(=O)Nc3cc(C)cc(C)c3)cccc2c1=O |  | 4.47 µM [falling, full curve]
Cc1nn(C)c(C)c1CNC(=O)c1nn2c(c1Cl)NC(c1cccs1)CC2C(F)(F)F (configuration not stated) |  | 10 µM [rising, partial curve, poor fit]
COc1ccc(CC(=O)Nc2nccs2)cc1OC | 11.2 µM [rising, single point] | 15.8 µM [rising, single point]
N#C/C(=C/c1cccc([N+](=O)[O-])c1)c1nnc2n1CCCCC2 |  | 12.6 µM [rising, partial curve]
COc1ccc(NC(=O)c2ccc(C#CC(C)(C)O)cc2)cc1 |  | 20 µM [rising, single point]
Cc1cccc(C(=O)Nc2ccc(OCc3cc(=O)n4ccc(C)cc4n3)cc2)c1 |  | 0.0251 µM [falling, full curve, poor fit]
COC(=O)c1ccc(CSc2nnc(SCc3ccc(C(=O)OC)o3)s2)o1 | 0.0398 µM [rising, full curve, poor fit] | 
COC(=O)c1ccccc1NC(=O)NCc1ccc2c(c1)CCN2C(=O)c1ccccc1 | 0.282 µM [falling, full curve, poor fit] | 0.158 µM [falling, full curve, poor fit]
C/C(=C\C(=O)N1CCc2ccccc21)C(=O)O | 2 µM [rising, full curve] | 2.51 µM [rising, full curve]
